# Tested on: cTnI-G203S mice
# Test: Echocardiography of treated cTnI-G203S mice
# Format: in vivo, mouse
# Conditions: 10 μM i.p. 3×/wk/5 wk, mean
# Experimental: Male mice expressing the human cTnI gene encoding the human disease-causing mutation cTnI-G203S were used for all studies. The mice develop hallmark features of HCM by 21 wk ([7], [13]). Male mice expressing the normal human cTnI gene were used as controls (wt). Ten-week-old mice were used for in vitro studies. For in vivo studies, 20- or 30-wk-old cTnI-G203S mice were treated with 10 μM AID-TAT or AID[S]-TAT via intraperitoneal injection, 3×/wk/5 wk. In vivo dose of AID-TAT or AID[S]-TAT (10 μM) was calculated based on blood volume, equating to ∼2 mg/kg total BW. Male animal models were used to eliminate potential differences in responses due to sex. Experiments were performed in a total of 21 wt (AID[S]-TAT), 6 wt (AID-TAT), 15 cTnI-G203S (AID[S]-TAT), and 26 cTnI-G203S (AID-TAT) mice. All animals were randomly assigned to treatment groups. All animal studies were approved by the Animal Ethics Committee of The University of Western Australia in accordance with the 2013 Australian Code for the Care and Use of Animals for Scientific Purposes ([58]).
# Echocardiographic measurement of left ventricular function were performed on mice under light methoxyflurane anesthesia using an i13L probe on a Vivid 7 Dimension ultrasound system (GE Healthcare), as previously described ([13], [29], [30]). Each n represents the average of quantitative measurements from wt or cTnI-G203S mice for each treatment group. Detailed methods are provided in SI Appendix.
# Echocardiographic measurement of left ventricular function were performed on mice under light methoxyflurane anesthesia using an i13L probe on a Vivid 7 Dimension ultrasound system (GE Healthcare, Little Chalfont, United Kingdom) as previously described (4, 7). Echocardiographic measurements were taken on M-mode in triplicate from separate mice at a sweep speed of 200 mm/s. Each n represents the average of quantitative measurements from wt or cTnI-G203S mice for each treatment group. […] FS was calculated by the formula [(LVEDD-LVESD)/EDD] x 100. […]
# [1] = Pre-HCM treatment (from 20 wk), 25-wk-old cTnI-G203S mice, n = 7 AID(S)-TAT, n = 6 AID-TAT
Sequence,HR [1],"HR (Post-HCM treatment (from 30 wk), 35-wk-old cTnI-G203S mice, n = 5)"
"QKILGEWDLAQYTDQELE [AID(S)-TAT, reference compound]",450 bpm,–
QQLEEDLKGYLDWITQAE [AID-TAT],452 bpm,450 bpm

# Source: paper PMC7502707, “Characterization and validation of a preventative therapy for hypertrophic cardiomyopathy in a murine model of the disease” (Proceedings of the National Academy of Sciences of the …, 2020)
